Out of some 210,000 compounds screened, about 5,900 (2.8%) were called active. Roughly 5% stayed inconclusive and do not appear here. Calls follow the shape of the dose curve; as a rule, active = well fitted activation curve with a large enough effect; inconclusive = small, poorly fitted or top-dose-only effect; inactive = no such curve, though single readings can be large or run the other way. The list shows a part of the results, in another mix than the full data. The source gives no active or inactive call for entries shown without one.
Potency is read from the fitted curve at half-maximal effect.

This assay in a line: qHTS Assay for Enhancers of SMN2 Splice Variant Expression. Also: nearly all actives have a fitted effect of over 55% in size. As to activity change, positive = activation: % of control where 0% means no effect. The conditions noted are these: HEK293 SMN2-luciferase splicing reporter, luminescence, 30-36 h; activity change, positive = activation: at 46.1 µM (top of the series) unless noted. The gist of the method: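 qHTS luciferase splicing reporter: luminescence rises when SMN2 exon 7 is included in transfected HEK293 cells. Compound exposure lasted 30-36 h at 37C, with 4.5 mM final sodium butyrate as control, followed by a ONE-Glo read.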
(In general: In qHTS, concentration-response curves come from the screen itself.)
Consider `Oc1oc(-c2ccco2)nc1C=Nc1ccccc1`, for which the activity change, positive = activation was 32.1%.

As for `CC(=O)c1cnc2cc(-c3ccc(Cl)cc3)nn2c1C`, the activity change, positive = activation worked out at 101%.

On to `Cc1c(CCO)c(=O)[nH]n1S(=O)(=O)c1ccccc1`, for which the activity change, positive = activation worked out at 33.6%.

With `O=C(COC(=O)/C=C/c1cccs1)Nc1ccc2ccccc2c1`, the activity change, positive = activation was -27.9%.

Take `CCOc1ccc(N/C(SCc2cccc([N+](=O)[O-])c2)=C(/C#N)C(N)=O)cc1`: the activity change, positive = activation was -7.14%.

On to `CN(CCNC(=O)C1CC(=O)N(c2ccc(F)c(Cl)c2)C1)Cc1ccccc1` (configuration not stated), for which the activity change, positive = activation came to 32.8%.

As for `Cn1c(=O)oc2cc(S(=O)(=O)Nc3ccccc3O)ccc21`, the activity change, positive = activation was 28.1%.

For the compound `Cc1cc(NC(=O)c2ccc(F)cc2F)n(-c2nc3ccccc3[nH]2)n1`, the “activity change, positive = activation” value was inactive: -28.5%.

For the compound `Oc1ccc(-c2csc(Nc3cccnc3)n2)cc1`, the activity change, positive = activation was 19.9%.

Take `COc1ccc(CCNC(=O)c2ccc(-c3ccc([N+](=O)[O-])cc3)o2)cc1OC`: the activity change, positive = activation was -78.7%.

Regarding `Cc1ccc(Nc2nc3ccccc3s2)c(C)c1`, the Potency was active: 2.51 µM.

With `COc1cc(C)ccc1OCCOc1cc(C)ccc1Cl`, the activity change, positive = activation was -43%.

`O=C(Nc1ccc2c(c1)OCCO2)NC12CC3CC(CC(C3)C1)C2`: the Potency is active: 22.4 µM.

With `CCCCN(C)C(=O)CCC(=O)Nc1ccc2nc(N3CCOCC3)cc(C)c2c1`, the Potency was active: 20 µM.

With `Cc1ccc(O)c(-c2cc(-c3ccccc3F)[nH]n2)c1`, the Potency is active: 11.2 µM.

With `CCc1ccc(-n2c(SCc3c(C)noc3C)nnc2-c2ccncc2)cc1`, the activity change, positive = activation came to 27.1%.

On to `COc1cccc(C(=O)Cn2c(Br)nc3c2c(=O)n(C)c(=O)n3C)c1`, for which the “activity change, positive = activation” value was inactive: -35.9%.

Consider `COC(=O)c1ccc(NC(=O)CCN2CCN(CCC(=O)Nc3ccc(C(=O)OC)cc3)CC2)cc1`, for which the activity change, positive = activation is -82.1%.

On to `CCN1CCN(C(=O)c2ccc(CN(c3ccccc3)S(=O)(=O)c3ccccc3)cc2)CC1`, for which the activity change, positive = activation was -36.2%.

In the case of `O=C(Nc1nc2ccccc2c2nc3ccccc3n12)c1ccc(F)cc1`, the “activity change, positive = activation” value was inactive: -21.6%.

As for `O=C(CSc1nc2cc(C(F)(F)F)ccc2n1Cc1ccccc1)NC1CCS(=O)(=O)C1` (configuration not stated), the activity change, positive = activation is -32.8%.

As to `CC(OCc1ccccc1)C(NC(=O)OC(C)(C)C)C(=O)NCC1CCCO1` (configuration not stated), the activity change, positive = activation amounted to 33%.

With `CC(C)(C)NC(=O)CN(C(=O)CNS(=O)(=O)c1ccccc1)c1ccc2c(c1)OCCO2`, the activity change, positive = activation is 32.5%.

Take `Cc1ccc(/C(N)=N/OC(=O)c2ccc3c(c2)OCO3)cc1`: the Potency was active: 12.6 µM.

With `CCOC(=O)N/N=C/c1c(C)nn(-c2cccc(C(F)(F)F)c2)c1Cl`, the “activity change, positive = activation” value was inactive: -66.2%.

In the case of `O=C(c1ccc(F)cc1)N1CCC(N2CCCCCC2)CC1`, the activity change, positive = activation is 35.6%.

Turning to `Cc1ccc(S(=O)(=O)c2c(O)cc(C)c(NS(=O)(=O)c3ccc(Br)cc3)c2C)cc1`, the “activity change, positive = activation” value is inactive: -37.6%.

As to `CC(Sc1nc(N)cc(=O)[nH]1)C(=O)Nc1sc2c(c1C#N)CCCC2` (configuration not stated), the “activity change, positive = activation” value is inactive: -61.2%.

Turning to `O=C(NC(=S)Nc1ccccn1)c1ccc([N+](=O)[O-])cc1`, the Potency is active: 2.82 µM.

Take `O=C(c1ccc2c(c1)N(Cc1ccccc1)C(=O)c1ccccc1S2)N1CCCC1`: the activity change, positive = activation was -52.5%.

For `CCOC(=O)c1snc(C(=O)NC2CCCCC2)c1N`, the activity change, positive = activation was found to be 158%.

As to `O=C1CC(O)(C(F)(F)F)Oc2c1ccc1ccccc21` (configuration not stated), the activity change, positive = activation was found to be 39.6%.

For the compound `CCN(CC)c1ccc(/C=c2\sc3nc4ccccc4n3c2=O)c(O)c1`, the “activity change, positive = activation” value was inactive: -46%.

Turning to `COCn1c(COc2ccc3ccccc3c2)nc2ccccc21`, the Potency was active: 11.2 µM.

In the case of `Nc1nc(CSC(=S)N2CCN(c3ccccc3)CC2)nc(Nc2ccc(F)cc2)n1`, the activity change, positive = activation was -36.5%.

With `Cc1onc(-c2ccccc2)c1-c1n[nH]c(=S)n1-c1ccc(C(=O)O)cc1`, the activity change, positive = activation came to 30.6%.

With `Cc1cccc(N2CCN(C(=O)C3CCN(C(=O)c4cc5sccc5n4C)CC3)CC2C)c1` (configuration not stated), the “activity change, positive = activation” value is inactive: -46.7%.

On to `Cc1nn2c(c1-c1ccccc1)NC1=C(C(=O)CCC1)C2c1ccccc1` (configuration not stated), for which the activity change, positive = activation worked out at 17.7%.

For `O=C(/C=C/c1ccccc1[N+](=O)[O-])Nc1cccnc1`, the Potency is active: 14.1 µM.

As to `Oc1ccc(Br)cc1C=Nc1cccn2cc(-c3ccccc3)nc12`, the activity change, positive = activation turned out to be 164%.

Take `Cn1c(=O)c2c(nc(N/N=C/c3cccs3)n2Cc2ccccc2)n(C)c1=O`: the “activity change, positive = activation” value was inactive: -55.1%.

As for `Nc1ccc(SCCN2C(=O)c3ccccc3C2=O)cc1`, the activity change, positive = activation came to 32%.

On to `Cc1cccc(N2CCN(C(=O)/C=C/c3cccs3)CC2)c1C`, for which the activity change, positive = activation was -42.8%.

In the case of `COc1ccc(-n2c(C)cc(C(=O)CN3C(=O)C(=O)N(Cc4ccccc4)C3=O)c2C)cc1`, the activity change, positive = activation is -55.7%.

As to `O=C(Nc1cccnc1Cl)c1noc2c1CCc1ccccc1-2`, the activity change, positive = activation worked out at 102%.

Turning to `COc1cccc(-c2cc(C(=O)NCCCn3ccnc3)no2)c1`, the activity change, positive = activation was determined as 40%.

In the case of `CC(C)CNc1cc(Cl)c(S(=O)(=O)NCC(C)C)cc1C(=O)O`, the activity change, positive = activation came out at 30.4%.

Take `CCOC(=O)N/N=C/c1c(C)nn(-c2ccccc2Cl)c1Cl`: the Potency is active: 12.6 µM.

`Cc1ccc(Cn2nc(C)c(NC(=O)c3noc4c3CCCCC4)c2C)cc1`: the “activity change, positive = activation” value is inactive: -32.6%.

As to `CC[n+]1c(/C=C2\Sc3ccccc3N2C)ccc2cccc(C)c21`, the “activity change, positive = activation” value is inactive: -86.5%.

For the compound `OC1CCCN(Cc2cccc3ccccc23)C1` (configuration not stated), the activity change, positive = activation came out at 36%.

Turning to `Cc1cc(/C=C2\SC(=Nc3ccc(F)cc3)NC2=O)c(C)n1-c1ccc(S(N)(=O)=O)cc1`, the activity change, positive = activation turned out to be 11%.
